In the supplement of paper PMC10849652:
This is one part of the list.

Sequences of proteins named here, by UniProt entry; tags and fusion partners are left off. A change or cut given only in a name is not applied to a line headed by its entry.
UniProt P61962: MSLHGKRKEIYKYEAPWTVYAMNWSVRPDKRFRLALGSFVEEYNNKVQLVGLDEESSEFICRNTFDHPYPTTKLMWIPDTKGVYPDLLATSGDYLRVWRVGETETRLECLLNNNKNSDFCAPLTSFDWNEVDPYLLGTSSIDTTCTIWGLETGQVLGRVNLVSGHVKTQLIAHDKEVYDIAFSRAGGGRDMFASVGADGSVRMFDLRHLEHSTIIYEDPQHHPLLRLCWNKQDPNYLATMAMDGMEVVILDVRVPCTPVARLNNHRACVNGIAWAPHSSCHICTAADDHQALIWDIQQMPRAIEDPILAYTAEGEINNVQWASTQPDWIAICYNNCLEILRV
UniProt P0DMU9: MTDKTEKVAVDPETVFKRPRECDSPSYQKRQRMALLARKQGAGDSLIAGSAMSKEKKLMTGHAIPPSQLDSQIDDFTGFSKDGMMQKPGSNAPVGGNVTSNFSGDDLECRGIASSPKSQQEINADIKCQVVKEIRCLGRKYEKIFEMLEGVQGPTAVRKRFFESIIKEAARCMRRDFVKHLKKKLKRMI
UniProt Q13616, whole entry, looked up: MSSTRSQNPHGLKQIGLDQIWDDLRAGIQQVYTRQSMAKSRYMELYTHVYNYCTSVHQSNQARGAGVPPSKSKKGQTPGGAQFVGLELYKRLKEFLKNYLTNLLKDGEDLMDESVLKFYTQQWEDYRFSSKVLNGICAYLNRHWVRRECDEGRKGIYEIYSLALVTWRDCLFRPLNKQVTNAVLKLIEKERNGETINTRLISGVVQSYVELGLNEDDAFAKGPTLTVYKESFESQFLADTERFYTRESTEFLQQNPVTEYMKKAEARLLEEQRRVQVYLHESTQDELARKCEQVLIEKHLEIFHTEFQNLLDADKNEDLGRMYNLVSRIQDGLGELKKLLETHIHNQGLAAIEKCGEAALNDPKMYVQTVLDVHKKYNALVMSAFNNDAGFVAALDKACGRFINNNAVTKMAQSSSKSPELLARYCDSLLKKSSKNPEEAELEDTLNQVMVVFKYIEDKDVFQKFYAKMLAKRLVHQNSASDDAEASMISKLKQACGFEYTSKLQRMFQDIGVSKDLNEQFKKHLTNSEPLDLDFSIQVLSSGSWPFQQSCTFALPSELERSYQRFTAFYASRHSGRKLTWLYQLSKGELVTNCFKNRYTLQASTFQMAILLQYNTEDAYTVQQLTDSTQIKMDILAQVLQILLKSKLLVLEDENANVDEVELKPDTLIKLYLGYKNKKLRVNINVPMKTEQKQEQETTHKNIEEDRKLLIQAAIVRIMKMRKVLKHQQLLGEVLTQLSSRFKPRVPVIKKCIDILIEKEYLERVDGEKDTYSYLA
UniProt P07711: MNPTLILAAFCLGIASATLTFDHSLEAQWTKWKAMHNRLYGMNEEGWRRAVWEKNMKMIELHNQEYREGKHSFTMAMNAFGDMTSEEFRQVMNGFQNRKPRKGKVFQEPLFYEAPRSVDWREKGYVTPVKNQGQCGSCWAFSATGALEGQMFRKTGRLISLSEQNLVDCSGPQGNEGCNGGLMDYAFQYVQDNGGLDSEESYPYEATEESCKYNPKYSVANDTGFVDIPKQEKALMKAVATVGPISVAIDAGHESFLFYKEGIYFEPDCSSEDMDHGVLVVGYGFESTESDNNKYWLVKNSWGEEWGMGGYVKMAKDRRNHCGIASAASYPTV
UniProt O60888: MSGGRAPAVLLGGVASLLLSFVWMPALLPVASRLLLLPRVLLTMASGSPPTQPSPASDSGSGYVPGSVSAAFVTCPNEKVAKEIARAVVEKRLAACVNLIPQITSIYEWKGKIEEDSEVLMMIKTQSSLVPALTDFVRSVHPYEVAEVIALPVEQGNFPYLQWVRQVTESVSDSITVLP
UniProt O43310: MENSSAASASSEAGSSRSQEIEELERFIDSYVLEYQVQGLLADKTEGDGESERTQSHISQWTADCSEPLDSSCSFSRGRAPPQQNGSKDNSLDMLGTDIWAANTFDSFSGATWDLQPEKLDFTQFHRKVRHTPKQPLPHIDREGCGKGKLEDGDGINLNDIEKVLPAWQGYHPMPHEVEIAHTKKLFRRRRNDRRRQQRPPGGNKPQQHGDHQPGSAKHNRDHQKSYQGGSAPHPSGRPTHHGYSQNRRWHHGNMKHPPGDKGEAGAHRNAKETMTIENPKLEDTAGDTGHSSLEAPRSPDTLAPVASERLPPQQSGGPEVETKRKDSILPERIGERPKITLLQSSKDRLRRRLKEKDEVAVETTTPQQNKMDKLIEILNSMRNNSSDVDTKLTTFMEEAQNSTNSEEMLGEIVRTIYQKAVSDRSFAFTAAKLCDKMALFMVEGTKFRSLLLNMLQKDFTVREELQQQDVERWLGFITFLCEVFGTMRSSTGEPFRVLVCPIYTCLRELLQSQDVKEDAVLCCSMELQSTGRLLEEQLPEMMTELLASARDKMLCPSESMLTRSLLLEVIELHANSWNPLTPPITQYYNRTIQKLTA
UniProt Q13617, whole entry, looked up: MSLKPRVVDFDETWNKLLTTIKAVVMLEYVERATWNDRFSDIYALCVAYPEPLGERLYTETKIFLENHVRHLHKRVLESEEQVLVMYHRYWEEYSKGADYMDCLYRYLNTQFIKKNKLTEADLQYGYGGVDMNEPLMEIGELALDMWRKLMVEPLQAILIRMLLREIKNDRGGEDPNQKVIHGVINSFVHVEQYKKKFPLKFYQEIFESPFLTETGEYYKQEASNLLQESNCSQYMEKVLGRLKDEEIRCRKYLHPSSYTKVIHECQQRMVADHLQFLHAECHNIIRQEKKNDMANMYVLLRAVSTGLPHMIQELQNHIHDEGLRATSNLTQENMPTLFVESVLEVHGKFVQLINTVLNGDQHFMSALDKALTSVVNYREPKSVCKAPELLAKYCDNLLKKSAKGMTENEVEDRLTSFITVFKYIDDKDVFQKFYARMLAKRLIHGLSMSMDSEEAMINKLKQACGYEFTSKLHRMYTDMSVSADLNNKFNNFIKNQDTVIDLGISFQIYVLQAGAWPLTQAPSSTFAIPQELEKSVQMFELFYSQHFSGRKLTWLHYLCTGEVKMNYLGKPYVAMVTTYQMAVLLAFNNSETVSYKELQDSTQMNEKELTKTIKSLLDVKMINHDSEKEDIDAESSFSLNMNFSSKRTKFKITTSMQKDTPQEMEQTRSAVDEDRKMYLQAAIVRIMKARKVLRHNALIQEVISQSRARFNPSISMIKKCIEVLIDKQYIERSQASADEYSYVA
UniProt P01034: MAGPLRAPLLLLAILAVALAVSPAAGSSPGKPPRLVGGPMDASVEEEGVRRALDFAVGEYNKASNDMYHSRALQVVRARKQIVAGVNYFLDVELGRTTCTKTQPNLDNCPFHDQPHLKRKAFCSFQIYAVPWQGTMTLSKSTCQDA
UniProt Q14118: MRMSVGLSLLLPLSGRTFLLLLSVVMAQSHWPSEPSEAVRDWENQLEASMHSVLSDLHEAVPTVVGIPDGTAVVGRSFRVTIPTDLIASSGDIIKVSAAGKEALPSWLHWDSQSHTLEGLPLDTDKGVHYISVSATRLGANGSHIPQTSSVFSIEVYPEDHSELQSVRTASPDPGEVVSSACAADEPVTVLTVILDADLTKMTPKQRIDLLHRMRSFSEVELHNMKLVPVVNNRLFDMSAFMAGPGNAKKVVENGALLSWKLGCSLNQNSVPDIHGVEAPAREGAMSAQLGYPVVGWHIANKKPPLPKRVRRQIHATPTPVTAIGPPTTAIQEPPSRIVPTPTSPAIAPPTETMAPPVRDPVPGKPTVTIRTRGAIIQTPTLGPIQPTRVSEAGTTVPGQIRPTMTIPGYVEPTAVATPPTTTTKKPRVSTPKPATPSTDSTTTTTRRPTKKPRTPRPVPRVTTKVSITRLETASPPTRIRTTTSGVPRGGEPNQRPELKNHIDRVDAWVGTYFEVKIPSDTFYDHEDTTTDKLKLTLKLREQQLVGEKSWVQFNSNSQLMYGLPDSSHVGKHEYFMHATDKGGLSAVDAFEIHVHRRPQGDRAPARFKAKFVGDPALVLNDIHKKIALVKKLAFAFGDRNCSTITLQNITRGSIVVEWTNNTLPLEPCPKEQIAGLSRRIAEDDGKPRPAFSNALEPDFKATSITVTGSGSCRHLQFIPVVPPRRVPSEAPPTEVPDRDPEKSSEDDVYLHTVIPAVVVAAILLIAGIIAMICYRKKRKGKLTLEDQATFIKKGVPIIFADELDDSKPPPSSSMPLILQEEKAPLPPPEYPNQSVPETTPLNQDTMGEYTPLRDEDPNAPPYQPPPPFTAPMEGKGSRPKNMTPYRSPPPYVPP
UniProt Q2VPK5: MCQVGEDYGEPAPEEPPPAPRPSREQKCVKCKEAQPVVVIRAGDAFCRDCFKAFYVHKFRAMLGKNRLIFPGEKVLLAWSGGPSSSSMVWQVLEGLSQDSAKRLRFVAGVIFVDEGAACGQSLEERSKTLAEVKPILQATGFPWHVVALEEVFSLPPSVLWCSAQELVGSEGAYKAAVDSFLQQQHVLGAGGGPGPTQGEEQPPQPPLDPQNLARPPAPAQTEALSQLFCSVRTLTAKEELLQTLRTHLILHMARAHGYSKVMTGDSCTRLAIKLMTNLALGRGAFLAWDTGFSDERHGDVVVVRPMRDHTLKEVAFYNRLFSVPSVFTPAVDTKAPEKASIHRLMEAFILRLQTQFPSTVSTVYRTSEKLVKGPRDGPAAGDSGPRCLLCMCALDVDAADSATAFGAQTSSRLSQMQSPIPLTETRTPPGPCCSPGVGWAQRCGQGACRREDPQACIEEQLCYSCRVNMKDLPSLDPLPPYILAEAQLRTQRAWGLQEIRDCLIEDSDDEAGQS
UniProt Q01459: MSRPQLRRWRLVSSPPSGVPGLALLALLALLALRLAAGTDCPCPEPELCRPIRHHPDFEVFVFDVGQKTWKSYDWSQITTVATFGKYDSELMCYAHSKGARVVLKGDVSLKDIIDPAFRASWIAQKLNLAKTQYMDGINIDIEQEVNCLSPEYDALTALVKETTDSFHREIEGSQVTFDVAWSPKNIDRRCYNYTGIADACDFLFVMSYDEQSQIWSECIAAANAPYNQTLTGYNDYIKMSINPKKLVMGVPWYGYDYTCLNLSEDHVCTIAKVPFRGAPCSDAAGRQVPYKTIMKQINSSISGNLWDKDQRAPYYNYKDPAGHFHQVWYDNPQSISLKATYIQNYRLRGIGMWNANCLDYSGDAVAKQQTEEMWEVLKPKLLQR
UniProt Q5QP82: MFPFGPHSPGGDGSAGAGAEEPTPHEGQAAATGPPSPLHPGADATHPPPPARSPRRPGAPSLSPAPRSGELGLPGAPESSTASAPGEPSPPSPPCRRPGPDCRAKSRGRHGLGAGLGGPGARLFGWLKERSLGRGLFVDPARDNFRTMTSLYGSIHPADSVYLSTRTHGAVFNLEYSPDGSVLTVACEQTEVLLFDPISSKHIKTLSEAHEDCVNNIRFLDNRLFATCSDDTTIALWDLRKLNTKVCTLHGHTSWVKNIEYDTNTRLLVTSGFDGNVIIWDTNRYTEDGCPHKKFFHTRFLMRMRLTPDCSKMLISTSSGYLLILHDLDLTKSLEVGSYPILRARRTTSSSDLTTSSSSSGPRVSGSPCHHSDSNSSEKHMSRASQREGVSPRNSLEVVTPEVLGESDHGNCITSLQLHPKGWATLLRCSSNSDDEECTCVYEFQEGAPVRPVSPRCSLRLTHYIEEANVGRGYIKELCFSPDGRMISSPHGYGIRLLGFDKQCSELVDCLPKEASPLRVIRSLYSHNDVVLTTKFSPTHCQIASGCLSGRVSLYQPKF
UniProt Q14247: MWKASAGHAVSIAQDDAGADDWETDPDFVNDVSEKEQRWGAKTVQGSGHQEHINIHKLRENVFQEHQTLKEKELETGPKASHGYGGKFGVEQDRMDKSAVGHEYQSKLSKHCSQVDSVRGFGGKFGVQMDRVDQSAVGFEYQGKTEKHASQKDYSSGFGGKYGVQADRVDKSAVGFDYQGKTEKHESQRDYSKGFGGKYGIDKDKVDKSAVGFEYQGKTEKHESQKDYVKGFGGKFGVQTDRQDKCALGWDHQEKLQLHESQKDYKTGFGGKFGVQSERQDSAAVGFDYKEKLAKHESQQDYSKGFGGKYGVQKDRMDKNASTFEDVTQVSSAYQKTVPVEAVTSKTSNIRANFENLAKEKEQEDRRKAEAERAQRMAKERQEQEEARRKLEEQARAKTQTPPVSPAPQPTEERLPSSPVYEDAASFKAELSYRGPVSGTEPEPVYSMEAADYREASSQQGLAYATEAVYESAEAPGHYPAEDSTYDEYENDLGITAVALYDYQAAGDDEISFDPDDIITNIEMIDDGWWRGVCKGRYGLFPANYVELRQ

Compound: CC1=CC=C(C=C1)SC2=C3C=C(SC3=CN=C2)C(=O)N
Assay: log2 fold change, soluble protein after heating vs DMSO (PISA); higher = thermal stabilisation; K562 cells, 10 uM, 30 min; active = over 0.2 and 3.5 SD of the protein, either way, in both replicates (recomputed)
Method in brief: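 K562 cells at 2×10^6 cells/mL were exposed to 10 μM compound for 30 min, then aliquots were heated for 3 min across 48°C-58°C, pooled, and extracted in PBS containing 0.5% NP-40 at 4°C. The supernatant after 21,000xg for 90 min was taken as soluble protein and measured by TMTpro 16plex LC-MS/MS with channel sums equalised. Thermal stability is reported relative to control samples, with values from duplicates. Fold changes are given on a log2 scale.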

**Q.** Which log2 fold change does the source give for CT47A1 (UniProt Q5JQC4) here?
**A.** inactive: -0.004

**Q.** CWC27 (UniProt Q6UX04) was tested. Which log2 fold change did it give?
**A.** inactive: 0.002

**Q.** For CYB5B, A0A499FJ32, which log2 fold change is on record?
**A.** inactive: 0.186

**Q.** How did the log2 fold change turn out when CUX1 isoform 2 (UniProt Q13948) was run?
**A.** inactive: -0.003

**Q.** CYB5R4 (UniProt Q7L1T6) was tested. Which log2 fold change did it give?
**A.** inactive: -0.002

**Q.** How did the log2 fold change turn out when CYHR1 (UniProt E9PJD7) was run?
**A.** inactive: -0.038

**Q.** DCAF7 (UniProt P61962) was tested. Which log2 fold change did it give?
**A.** inactive: 0.014

**Q.** How did the log2 fold change turn out when CT45A10 (UniProt P0DMU9) was run?
**A.** inactive: -0.263

**Q.** Which log2 fold change does the source give for CTPS1 (UniProt P17812) here?
**A.** inactive: 0.013

**Q.** With CTH (UniProt P32929) as the target, how does the log2 fold change read?
**A.** inactive: 0.056

**Q.** For CTNNA2 (UniProt P26232), which log2 fold change is on record?
**A.** inactive: 0.095

**Q.** With CUL1 (UniProt Q13616) as the target, how does the log2 fold change read?
**A.** inactive: 0.04

**Q.** With CTSL (UniProt P07711) as the target, how does the log2 fold change read?
**A.** inactive: -0.049

**Q.** CTNNB1 (UniProt P35222) was tested. Which log2 fold change did it give?
**A.** inactive: 0.09

**Q.** With CYB5R3 isoform 3 (UniProt P00387) as the target, how does the log2 fold change read?
**A.** inactive: -0.001

**Q.** For CUTA isoform 2 (UniProt O60888), which log2 fold change is on record?
**A.** inactive: 0.013

**Q.** CTIF isoform 2 (UniProt O43310) was tested. Which log2 fold change did it give?
**A.** inactive: 0.009

**Q.** With CUL3 (UniProt Q13618) as the target, how does the log2 fold change read?
**A.** inactive: -0.001

**Q.** CUL2 isoform 2 (UniProt Q13617) was tested. Which log2 fold change did it give?
**A.** inactive: 0.064

**Q.** How did the log2 fold change turn out when CST3 (UniProt P01034) was run?
**A.** inactive: -0.094

**Q.** With DAG1 (UniProt Q14118) as the target, how does the log2 fold change read?
**A.** inactive: -0.013

**Q.** Which log2 fold change does the source give for D2HGDH (UniProt Q8N465) here?
**A.** inactive: 0.004

**Q.** With CTSV (UniProt O60911) as the target, how does the log2 fold change read?
**A.** inactive: 0

**Q.** How did the log2 fold change turn out when CSTF1 (UniProt Q05048) was run?
**A.** inactive: 0.022

**Q.** CYB5R1 (UniProt Q9UHQ9) was tested. Which log2 fold change did it give?
**A.** inactive: 0.021

**Q.** CTBP1 (UniProt Q13363) was tested. Which log2 fold change did it give?
**A.** inactive: 0.026

**Q.** Which log2 fold change does the source give for CYFIP2 (UniProt Q96F07) here?
**A.** inactive: -0.048

**Q.** For CUEDC2 (UniProt Q9H467), which log2 fold change is on record?
**A.** inactive: -0.001

**Q.** With CXorf56 (UniProt Q9H5V9) as the target, how does the log2 fold change read?
**A.** inactive: 0.009

**Q.** CSPP1 (UniProt Q1MSJ5) was tested. Which log2 fold change did it give?
**A.** inactive: 0.018

**Q.** For DCAF15 (UniProt Q66K64), which log2 fold change is on record?
**A.** inactive: 0.059

**Q.** Which log2 fold change does the source give for CSTF3 (UniProt Q12996) here?
**A.** inactive: -0.005

**Q.** For CYFIP1 (UniProt Q7L576), which log2 fold change is on record?
**A.** inactive: 0.017

**Q.** With DCTN3 (UniProt O75935) as the target, how does the log2 fold change read?
**A.** inactive: 0

**Q.** With DBR1 (UniProt Q9UK59) as the target, how does the log2 fold change read?
**A.** inactive: 0.007

**Q.** How did the log2 fold change turn out when CYC1 (UniProt P08574) was run?
**A.** inactive: 0.049

**Q.** CTU2 (UniProt Q2VPK5) was tested. Which log2 fold change did it give?
**A.** inactive: 0

**Q.** Which log2 fold change does the source give for CTBS (UniProt Q01459) here?
**A.** inactive: -0.026

**Q.** DCAF10 (UniProt Q5QP82) was tested. Which log2 fold change did it give?
**A.** inactive: -0.015

**Q.** Which log2 fold change does the source give for CTTN (UniProt Q14247) here?
**A.** inactive: -0.005
